# Assays:
# U4/U6 92 nt RNA = experiment: CD thermal melting assay of U4/U6 RNA; parameters: species or system yeast
# U4U6 RNA = experiment: SHAPE-MaP structure probing; parameters: species or system yeast; conditions: 100 μM compound vs DMSO
SMILES,effect on RNA thermodynamic stability (CD melting) (U4/U6 92 nt RNA),ΔTm (U4/U6 92 nt RNA; 5 μM RNA with 100 μM compound vs DMSO),effect on RNA structure by SHAPE reactivity (U4U6 RNA)
CCc1nnc(-c2nnc(NCCCN(C)C)c3ccccc23)o1 [Compound 2],stabilization,+3.3 ± 0.3 °C,–
CN(C)CCNc1nnc(-c2nc(-c3ccc(F)cc3)no2)c2ccccc12 [Compound 22],–,–,overall stabilization
Cc1ccc(-n2ncc3c(NCCCN(C)C)ncnc32)cc1Cl [Compound 1],destabilization,–,clear destabilization effect

# Reference: article doi:10.1101/2025.10.10.681657 (bioRxiv, 2025)
